The record followed here is patent US12491246B2 (KLEO PHARMACEUTICALS, INC., priority 2018, dated 2025).

The data set in a line: general procedure: Fmoc solid-phase peptide synthesis; CTC Resin; HBTU/DIEA (HATU/DIEA for biotin-PEG8-CH2CH2COOH). Particulars: conjugation step.

Some peptides are written in HELM: one residue between dots, names in brackets for other building blocks, links after the first $.

“PEPTIDE1{[CH2CO].A.R.[Ahp].Y.H.D.G.V.L.[Bip].[Ahp].D.C.[PEG6BCN].[Inp].G.[D-gGlu].[D-gGlu].[dE].[D-gGlu].[D-gGlu].G.G.D.C.A.W.H.L.G.E.L.V.W.C.T}$PEPTIDE1,PEPTIDE1,1:R3-14:R3|PEPTIDE1,PEPTIDE1,26:R3-36:R3$$$V2.0”: the conjugation yield came out at 56.9% and the “final purity (method not given)” value amounted to 98.4%.
